Positions count from the first letter of the chain named. Results are given in words; binding and its absence hold for the method and conditions named. In cells and extracts the contact can be indirect. These calls come from enrichment with a bait or labelling near it, and not all partners need be listed. For some of these results: Where a sequence is shown, tags or fusion partners need not be part of it.
Columns and labels:
[1] = target: T1, Checkpoint kinase 1, wild type, N-terminal Strep-HA tag (human) (UniProt O14757); assay: affinity purification with mass spectrometry; N-terminal Strep-HA-tagged bait induced with doxycycline (24 h) in HEK293 cells; cells treated 4 h with 1 µM inhibitor (SGC-CAMKK2-1, SGC-CAMKK2-1N or rabusertib) or 0.01% DMSO; native lysis in HNN buffer (50 mM HEPES pH 8.0, 150 mM NaCl, 50 mM NaF) with 0.5% IGEPAL; StrepTactin Sepharose, biotin elution; interactors scored against EGFP pulldowns (modified D-score > 1.425)
T1 sequence: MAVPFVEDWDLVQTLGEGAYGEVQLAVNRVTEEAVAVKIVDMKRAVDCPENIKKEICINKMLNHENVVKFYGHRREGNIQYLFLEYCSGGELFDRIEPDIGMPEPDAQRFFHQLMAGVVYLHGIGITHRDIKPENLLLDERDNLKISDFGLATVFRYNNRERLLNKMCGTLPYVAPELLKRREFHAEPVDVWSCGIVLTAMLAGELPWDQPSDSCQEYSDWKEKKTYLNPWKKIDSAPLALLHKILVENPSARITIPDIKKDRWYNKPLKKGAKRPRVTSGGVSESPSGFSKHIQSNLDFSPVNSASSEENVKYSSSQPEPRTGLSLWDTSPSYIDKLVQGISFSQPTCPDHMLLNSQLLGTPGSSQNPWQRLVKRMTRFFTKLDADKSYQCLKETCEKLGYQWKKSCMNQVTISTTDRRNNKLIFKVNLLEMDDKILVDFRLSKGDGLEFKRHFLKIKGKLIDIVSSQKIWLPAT

By UniProt entry, the sequences of proteins in these tests, tags left out.
UniProt Q96RR4: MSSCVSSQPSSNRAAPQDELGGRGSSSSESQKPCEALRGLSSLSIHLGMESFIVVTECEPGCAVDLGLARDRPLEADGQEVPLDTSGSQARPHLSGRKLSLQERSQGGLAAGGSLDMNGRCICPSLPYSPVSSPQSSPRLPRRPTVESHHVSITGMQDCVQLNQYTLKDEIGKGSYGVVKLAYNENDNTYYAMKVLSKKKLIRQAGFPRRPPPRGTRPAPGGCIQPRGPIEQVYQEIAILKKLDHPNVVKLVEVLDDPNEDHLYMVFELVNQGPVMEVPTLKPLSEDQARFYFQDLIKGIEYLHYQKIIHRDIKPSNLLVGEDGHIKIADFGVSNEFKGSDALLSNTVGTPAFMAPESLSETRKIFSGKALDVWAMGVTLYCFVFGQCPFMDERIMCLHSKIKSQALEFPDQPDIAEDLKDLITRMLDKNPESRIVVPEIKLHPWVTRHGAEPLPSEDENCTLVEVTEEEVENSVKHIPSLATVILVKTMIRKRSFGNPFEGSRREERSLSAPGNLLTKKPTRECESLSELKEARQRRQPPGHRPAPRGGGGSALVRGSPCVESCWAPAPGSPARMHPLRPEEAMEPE
UniProt Q13131: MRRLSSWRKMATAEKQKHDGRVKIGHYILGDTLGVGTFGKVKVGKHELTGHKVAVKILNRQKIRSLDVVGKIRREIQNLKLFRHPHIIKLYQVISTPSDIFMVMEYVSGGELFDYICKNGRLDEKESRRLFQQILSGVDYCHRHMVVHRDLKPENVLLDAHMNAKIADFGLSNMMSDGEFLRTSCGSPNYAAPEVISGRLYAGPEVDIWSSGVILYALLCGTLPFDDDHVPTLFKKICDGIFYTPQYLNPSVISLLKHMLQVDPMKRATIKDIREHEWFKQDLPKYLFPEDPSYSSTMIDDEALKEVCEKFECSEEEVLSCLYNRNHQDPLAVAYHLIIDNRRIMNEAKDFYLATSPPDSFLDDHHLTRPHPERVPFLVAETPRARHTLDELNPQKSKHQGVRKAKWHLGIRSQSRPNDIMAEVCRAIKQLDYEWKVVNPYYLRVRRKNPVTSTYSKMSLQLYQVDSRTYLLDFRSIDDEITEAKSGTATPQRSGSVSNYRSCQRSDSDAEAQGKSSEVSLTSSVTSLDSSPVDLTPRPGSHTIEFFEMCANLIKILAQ
UniProt P63104: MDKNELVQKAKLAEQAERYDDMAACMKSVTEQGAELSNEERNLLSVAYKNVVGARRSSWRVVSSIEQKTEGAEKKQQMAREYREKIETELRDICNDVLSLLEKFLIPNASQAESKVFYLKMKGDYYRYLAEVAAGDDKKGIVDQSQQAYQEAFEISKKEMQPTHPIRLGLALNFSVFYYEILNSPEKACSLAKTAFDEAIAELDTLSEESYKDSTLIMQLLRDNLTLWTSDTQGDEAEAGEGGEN
UniProt P49736: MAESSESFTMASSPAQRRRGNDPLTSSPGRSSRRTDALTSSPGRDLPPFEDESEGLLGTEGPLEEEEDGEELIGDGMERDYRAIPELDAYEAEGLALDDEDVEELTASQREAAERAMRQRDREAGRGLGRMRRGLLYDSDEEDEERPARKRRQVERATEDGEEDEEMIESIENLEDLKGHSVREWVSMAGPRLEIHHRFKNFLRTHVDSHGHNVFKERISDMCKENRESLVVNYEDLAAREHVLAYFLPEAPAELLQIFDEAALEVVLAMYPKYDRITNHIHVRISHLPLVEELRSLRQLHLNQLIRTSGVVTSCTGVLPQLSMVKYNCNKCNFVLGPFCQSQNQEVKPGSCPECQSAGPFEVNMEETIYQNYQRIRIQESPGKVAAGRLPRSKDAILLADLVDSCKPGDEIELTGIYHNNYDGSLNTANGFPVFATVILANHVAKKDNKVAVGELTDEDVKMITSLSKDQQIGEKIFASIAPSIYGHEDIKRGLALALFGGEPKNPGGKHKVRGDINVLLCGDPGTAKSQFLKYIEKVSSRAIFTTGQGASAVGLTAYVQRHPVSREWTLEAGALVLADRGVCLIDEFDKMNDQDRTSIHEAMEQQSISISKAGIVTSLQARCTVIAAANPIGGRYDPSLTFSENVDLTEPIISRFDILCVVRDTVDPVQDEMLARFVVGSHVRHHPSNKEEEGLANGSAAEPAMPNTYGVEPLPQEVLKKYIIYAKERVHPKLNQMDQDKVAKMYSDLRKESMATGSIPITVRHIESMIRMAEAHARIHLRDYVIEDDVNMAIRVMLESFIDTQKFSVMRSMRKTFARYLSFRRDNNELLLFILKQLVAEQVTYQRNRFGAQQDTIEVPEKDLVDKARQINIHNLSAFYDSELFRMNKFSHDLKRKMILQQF
UniProt O75147: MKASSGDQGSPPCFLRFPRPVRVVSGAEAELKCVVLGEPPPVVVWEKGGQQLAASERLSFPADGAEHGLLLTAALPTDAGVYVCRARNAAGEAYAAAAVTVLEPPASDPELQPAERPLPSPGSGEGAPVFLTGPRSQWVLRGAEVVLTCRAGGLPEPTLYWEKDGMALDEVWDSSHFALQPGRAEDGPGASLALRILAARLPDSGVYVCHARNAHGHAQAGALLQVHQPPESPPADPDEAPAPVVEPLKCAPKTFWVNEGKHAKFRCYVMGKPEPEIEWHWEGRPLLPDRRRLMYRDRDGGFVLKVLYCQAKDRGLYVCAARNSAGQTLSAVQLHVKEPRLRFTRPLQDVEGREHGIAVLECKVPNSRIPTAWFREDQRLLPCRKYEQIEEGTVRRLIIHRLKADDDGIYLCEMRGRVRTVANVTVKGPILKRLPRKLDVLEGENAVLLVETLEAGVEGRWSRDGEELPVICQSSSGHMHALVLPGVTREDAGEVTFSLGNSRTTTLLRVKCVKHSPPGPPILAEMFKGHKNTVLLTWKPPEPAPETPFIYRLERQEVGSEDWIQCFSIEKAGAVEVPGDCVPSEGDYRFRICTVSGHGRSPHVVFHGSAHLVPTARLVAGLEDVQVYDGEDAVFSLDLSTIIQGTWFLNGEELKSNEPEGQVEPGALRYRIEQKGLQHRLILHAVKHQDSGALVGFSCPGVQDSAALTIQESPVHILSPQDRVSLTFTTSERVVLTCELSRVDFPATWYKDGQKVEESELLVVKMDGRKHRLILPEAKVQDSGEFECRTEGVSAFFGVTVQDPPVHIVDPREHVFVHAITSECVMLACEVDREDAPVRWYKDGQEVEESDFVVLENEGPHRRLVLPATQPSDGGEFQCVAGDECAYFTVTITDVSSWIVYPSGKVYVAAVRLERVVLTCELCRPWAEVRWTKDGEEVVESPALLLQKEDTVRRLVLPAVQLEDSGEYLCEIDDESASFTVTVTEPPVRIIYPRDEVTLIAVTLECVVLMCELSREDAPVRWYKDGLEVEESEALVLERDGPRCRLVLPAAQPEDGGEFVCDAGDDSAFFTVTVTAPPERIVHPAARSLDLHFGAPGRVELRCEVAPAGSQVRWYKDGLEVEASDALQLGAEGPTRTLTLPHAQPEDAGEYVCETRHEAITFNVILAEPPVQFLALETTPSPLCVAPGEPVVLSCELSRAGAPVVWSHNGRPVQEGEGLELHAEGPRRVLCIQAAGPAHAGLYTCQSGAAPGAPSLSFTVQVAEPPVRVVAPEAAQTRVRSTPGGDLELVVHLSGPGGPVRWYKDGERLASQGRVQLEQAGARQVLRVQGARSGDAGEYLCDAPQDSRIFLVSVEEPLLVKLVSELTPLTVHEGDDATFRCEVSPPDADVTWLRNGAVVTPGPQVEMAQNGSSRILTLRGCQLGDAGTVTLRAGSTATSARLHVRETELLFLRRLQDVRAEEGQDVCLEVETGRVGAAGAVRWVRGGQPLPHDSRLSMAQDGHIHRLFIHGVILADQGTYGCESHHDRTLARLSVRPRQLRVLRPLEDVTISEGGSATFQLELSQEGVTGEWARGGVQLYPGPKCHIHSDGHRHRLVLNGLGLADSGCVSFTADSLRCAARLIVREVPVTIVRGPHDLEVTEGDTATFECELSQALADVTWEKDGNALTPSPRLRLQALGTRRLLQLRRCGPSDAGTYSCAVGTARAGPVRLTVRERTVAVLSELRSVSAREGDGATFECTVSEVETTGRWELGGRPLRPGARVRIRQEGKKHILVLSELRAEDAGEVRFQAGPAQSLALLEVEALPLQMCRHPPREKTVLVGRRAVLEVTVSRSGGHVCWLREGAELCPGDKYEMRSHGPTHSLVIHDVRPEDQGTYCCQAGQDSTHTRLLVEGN
UniProt P55786: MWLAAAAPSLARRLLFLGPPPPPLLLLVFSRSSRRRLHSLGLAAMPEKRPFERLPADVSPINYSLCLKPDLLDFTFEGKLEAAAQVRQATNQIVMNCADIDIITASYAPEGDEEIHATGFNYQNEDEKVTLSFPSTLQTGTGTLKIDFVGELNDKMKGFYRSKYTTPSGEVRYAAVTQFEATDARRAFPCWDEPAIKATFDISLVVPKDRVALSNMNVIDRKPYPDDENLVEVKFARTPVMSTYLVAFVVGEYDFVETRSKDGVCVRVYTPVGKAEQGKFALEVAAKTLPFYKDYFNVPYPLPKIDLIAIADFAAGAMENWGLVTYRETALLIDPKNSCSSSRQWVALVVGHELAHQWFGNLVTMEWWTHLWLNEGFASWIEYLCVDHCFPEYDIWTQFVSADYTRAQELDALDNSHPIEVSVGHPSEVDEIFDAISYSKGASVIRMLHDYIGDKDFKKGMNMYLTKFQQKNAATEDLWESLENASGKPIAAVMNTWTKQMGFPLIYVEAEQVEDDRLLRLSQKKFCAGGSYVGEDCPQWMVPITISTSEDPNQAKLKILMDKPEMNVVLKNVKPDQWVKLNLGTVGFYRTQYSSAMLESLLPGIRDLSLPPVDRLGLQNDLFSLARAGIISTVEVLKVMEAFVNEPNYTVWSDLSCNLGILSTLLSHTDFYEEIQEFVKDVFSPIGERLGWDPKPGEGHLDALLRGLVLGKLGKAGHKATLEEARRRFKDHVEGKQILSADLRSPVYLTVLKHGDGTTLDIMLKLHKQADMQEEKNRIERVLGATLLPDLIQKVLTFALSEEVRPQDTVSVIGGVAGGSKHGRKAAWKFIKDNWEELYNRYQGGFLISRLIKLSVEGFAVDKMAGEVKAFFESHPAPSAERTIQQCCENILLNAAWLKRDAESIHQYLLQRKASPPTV
UniProt Q93009: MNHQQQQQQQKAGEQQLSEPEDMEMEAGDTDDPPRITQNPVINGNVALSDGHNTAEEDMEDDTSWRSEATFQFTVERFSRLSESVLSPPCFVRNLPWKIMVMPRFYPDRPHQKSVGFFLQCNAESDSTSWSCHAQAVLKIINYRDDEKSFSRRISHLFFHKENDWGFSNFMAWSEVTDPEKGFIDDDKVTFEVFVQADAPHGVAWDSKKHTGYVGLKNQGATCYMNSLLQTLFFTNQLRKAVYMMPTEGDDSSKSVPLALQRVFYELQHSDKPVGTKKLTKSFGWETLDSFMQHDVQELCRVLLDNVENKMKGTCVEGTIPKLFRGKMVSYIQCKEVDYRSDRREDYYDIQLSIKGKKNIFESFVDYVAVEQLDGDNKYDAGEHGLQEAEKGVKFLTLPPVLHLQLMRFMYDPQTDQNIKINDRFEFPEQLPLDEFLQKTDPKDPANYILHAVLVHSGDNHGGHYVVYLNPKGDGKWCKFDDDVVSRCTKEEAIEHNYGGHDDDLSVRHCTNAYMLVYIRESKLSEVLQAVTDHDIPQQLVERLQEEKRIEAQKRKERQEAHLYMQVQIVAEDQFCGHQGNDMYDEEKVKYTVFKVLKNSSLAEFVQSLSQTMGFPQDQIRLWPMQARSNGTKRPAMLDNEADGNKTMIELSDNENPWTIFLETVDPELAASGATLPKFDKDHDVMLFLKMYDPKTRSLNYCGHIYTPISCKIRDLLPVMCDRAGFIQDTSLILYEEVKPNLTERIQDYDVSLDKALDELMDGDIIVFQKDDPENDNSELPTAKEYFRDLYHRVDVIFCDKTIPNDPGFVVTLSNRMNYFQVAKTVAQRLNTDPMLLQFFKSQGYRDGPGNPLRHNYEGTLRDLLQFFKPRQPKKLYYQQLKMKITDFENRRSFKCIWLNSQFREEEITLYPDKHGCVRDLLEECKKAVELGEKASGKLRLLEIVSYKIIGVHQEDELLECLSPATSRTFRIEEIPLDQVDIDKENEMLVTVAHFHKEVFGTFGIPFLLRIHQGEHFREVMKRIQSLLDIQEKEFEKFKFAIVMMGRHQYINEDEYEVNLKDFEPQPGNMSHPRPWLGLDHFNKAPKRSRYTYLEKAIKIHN
UniProt P12004: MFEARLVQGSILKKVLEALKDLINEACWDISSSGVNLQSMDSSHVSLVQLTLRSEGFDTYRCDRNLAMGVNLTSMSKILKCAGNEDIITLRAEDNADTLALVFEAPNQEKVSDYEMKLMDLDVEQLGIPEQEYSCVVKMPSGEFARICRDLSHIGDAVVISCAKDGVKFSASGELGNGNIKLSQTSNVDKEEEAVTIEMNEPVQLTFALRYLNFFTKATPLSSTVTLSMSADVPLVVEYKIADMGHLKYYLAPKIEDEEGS

[2] = target: Calcium/calmodulin-dependent protein kinase kinase 2, wild type, N-terminal Strep-HA tag (human) (UniProt Q96RR4); assay: as above
miniTurbo-PRKAA1 (human) = miniTurbo-PRKAA1 (human) (UniProt Q13131); assay: proximity labelling; N-terminal miniTurbo-tagged bait induced with doxycycline in HEK293 cells; 1 µM inhibitor (SGC-CAMKK2-1, rabusertib or Gö 6983) or 0.01% DMSO for 4 h, 50 µM biotin for the last hour; RIPA lysis; StrepTactin Sepharose; changes upon inhibitor against vehicle, EGFP control
[3] = target: T2, CHEK1 L449R, N-terminal Strep-HA tag (human) (UniProt O14757); assay: affinity purification with mass spectrometry; N-terminal Strep-HA-tagged bait induced with doxycycline (24 h) in HEK293 cells; cells treated 4 h with 1 µM inhibitor (SGC-CAMKK2-1, SGC-CAMKK2-1N or rabusertib) or 0.01% DMSO; native lysis in HNN buffer (50 mM HEPES pH 8.0, 150 mM NaCl, 50 mM NaF) with 0.5% IGEPAL; StrepTactin Sepharose, biotin elution; interactors scored against EGFP pulldowns (modified D-score > 1.425)
T2 sequence: T1 sequence with L449R

[4] = target: T3, CHEK1 D130A, N-terminal Strep-HA tag (human) (UniProt O14757); assay: as above
T3 sequence: T1 sequence with D130A

| Substance | binding [1] | other results |
| --- | --- | --- |
| 14-3-3 protein zeta (from UniProt P63104 1-245) | binds | – |
| DNA replication licensing factor MCM2 (from UniProt P49736 1-904) | binds | – |
| Obscurin-like protein 1 (from UniProt O75147 1-1896) | – | binding [2]: binds |
| Puromycin-sensitive aminopeptidase (from UniProt P55786 1-919) | – | binding [2]: binds |
| Ubiquitin carboxyl-terminal hydrolase 7 (from UniProt Q93009 1-1102) | binds | – |
| endogenous CAMKK2 (from UniProt Q96RR4 1-588) | – | binding (miniTurbo-PRKAA1 (human)): binds |
| mitochondrial protein CLPB (human (endogenous in HEK293)) | binds | binding [3]: binds; binding [4]: binds |
| proliferating cell nuclear antigen (from UniProt P12004 1-261) | binds | – |
